Results deposited as PubChem BioAssay AID1259405 (NCATS, 2018).
Purpose: 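Silenced genes that increase secreted GFP made by CHO cells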 (primary screen). Cells: Chinese hamster CHO-K1 ovary cells with stable secreted eGFP expression. Reagent: single siRNA against mouse genes, 0.8 pmol siRNA per well (2 µl of 400 nM stock). Duration: 3 days. Read-out: 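Per-well intracellular GFP measured by laser scanning cytometry, plus viability from ATP luminescence, each relative to plate median of non-targeting control wells, in %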. Direction: GFP, % of control: higher = more GFP per well, higher productivity; viability (ATP), % of control: higher = more viable cells (more ATP). Hit rule: 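a knock-down is called active if GFP reaches 120% or more of non-targeting control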.
The whole screen tested about 50,000 reagents; this is a part drawn at random. About 4,000 of them (8%) count as active. 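Mouse siRNA library applied to hamster cells; one well for each siRNA.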 Entries without a mark were called inactive. Reagents against one gene are numbered here.

gene symbol	reagent no.	GFP, % of control	viability (ATP), % of control
Zfp61	1	48.7	66.7
Zfp61	2	73	78.8
Zfp61	3	61.6	29
Cyb5d2	1	87.6	46.6
Cyb5d2	2	52.2	52.3
Cyb5d2	3	65	89.6
Zfp273	1	76.8	74.8
Zfp273	2	74.1	56.7
Zfp273	3	119	117
9330155M09Rik	1	82.6	68.2
9330155M09Rik	2	36.5	55.3
9330155M09Rik	3	84.3	85.2
Chrnd	1	97.2	102
Chrnd	2	77.8	61.6
Chrnd	3	49.5	54.4
Map10	1	86.4	114
Map10	2	69	95.8
Map10	3	99.9	144
Lime1	1	97.7	54.1
Lime1	2	74.9	62.4
Lime1	3	62.4	69.3
Agpat4	1	125 (active)	82.3
Agpat4	2	62.9	67.2
Agpat4	3	69.8	51.5
Tmem177	1	75.6	77.8
Tmem177	2	62	75.5
Tmem177	3	68.8	65.4
Nck1	1	58	46.8
Nck1	2	74.6	64.4
Nck1	3	68.1	70.6

Just “viability (ATP), % of control”, for 3 of the entries above:
Cyb5d2 #3 = 89.6
Zfp273 #1 = 74.8
Zfp273 #2 = 56.7

More reagents follow.
gene symbol	reagent no.	GFP, % of control	viability (ATP), % of control
Or7a41	1	115	81.6
Or7a41	2	95	71.6
Or7a41	3	48.4	88.5
Or8b1c	1	121 (active)	94.9
Or8b1c	2	77	79.1
Or8b1c	3	65	68.8
Tbx22	1	77.2	84
Tbx22	2	83	66.3
Tbx22	3	107	102
Clpp	1	72.2	103
Clpp	2	72.2	72.4
Clpp	3	66.7	77
Fcna	1	93.1	59.1
Fcna	2	86.9	78.6
Fcna	3	120 (active)	94.6
Arl5b	1	125 (active)	89.5
Arl5b	2	67.1	48.9
Arl5b	3	82.1	98.3
Or52e8	1	82	51.3
Or52e8	2	57.4	67.3
Or52e8	3	77.2	80.2
Clec4b1	1	66	73.1
Clec4b1	2	72.3	86.9
Clec4b1	3	77.9	79.9
Homer3	1	62.6	51.8
Homer3	2	105	81.2
Homer3	3	142 (active)	94.6
